The values that follow come from publication PMC9899276.

The target of this assay is STING-TurboID (human), Q86WV6. In words: proximity labelling; 293T stably expressing STING-TurboID (WT or 5KR), cGAMP in permeabilisation buffer for the indicated times (up to 6 h), 500 µM biotin 30 min prior to harvest; RIPA lysate, streptavidin magnetic beads, immunoblot of the labelled proteins; also done with 0.5 µM MLN7243 and in UBE2N KO cells. Particulars: remark: other sources report otherwise. On the technique in general: Immunoblotting shows a protein as a band on a membrane.

These are yes or no findings as the source states them, for the method shown. In cells and extracts the contact can be indirect. Here binding means that the protein was enriched with, or labelled near, the bait; the list need not be complete.

B1: VPS37A, Q8NEZ2 1-397 (protein)
chain: MSWLFPLTKSASSSAAGSPGGLTSLQQQKQRLIESLRNSHSSIAEIQKDVEYRLPFTINNLTININILLPPQFPQEKPVISVYPPIRHHLMDKQGVYVTSPLVNNFTMHSDLGKIIQSLLDEFWKNPPVLAPTSTAFPYLYSNPSGMSPYASQGFPFLPPYPPQEANRSITSLSVADTVSSSTTSHTTAKPAAPSFGVLSNLPLPIPTVDASIPTSQNGFGYKMPDVPDAFPELSELSVSQLTDMNEQEEVLLEQFLTLPQLKQIITDKDDLVKSIEELARKNLLLEPSLEAKRQTVLDKYELLTQMKSTFEKKMQRQHELSESCSASALQARLKVAAHEAEEESDNIAEDFLEGKMEIDDFLSSFMEKRTICHCRRAKEEKLQQAIAMHSQFHAPL
Consider B1, for which the binding entry is “binds”.
